The text below walks through data of doi:10.1101/2023.09.21.558797.

By UniProt entry, the sequences of proteins in these tests, tags left out. Where a name states a change or a piece, a line headed by the entry shows the natural chain unless it says otherwise. Residues count along the entry.
UniProt P21575, residues 746-864: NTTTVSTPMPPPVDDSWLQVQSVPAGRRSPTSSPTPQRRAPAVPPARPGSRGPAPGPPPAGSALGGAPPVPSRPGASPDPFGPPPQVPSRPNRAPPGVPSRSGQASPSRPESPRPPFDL
UniProt O35180: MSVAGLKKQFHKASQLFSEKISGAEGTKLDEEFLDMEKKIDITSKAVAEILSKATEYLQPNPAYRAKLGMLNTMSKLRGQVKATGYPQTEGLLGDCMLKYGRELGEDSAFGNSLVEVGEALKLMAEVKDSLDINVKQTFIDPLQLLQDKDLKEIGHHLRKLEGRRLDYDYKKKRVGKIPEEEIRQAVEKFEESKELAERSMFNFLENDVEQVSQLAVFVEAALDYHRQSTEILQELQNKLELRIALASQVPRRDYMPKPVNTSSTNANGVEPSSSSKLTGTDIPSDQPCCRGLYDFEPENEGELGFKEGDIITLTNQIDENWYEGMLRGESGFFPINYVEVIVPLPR

The target of the assay is GST-Dyn1xA-PRR (full-length proline-rich region of Dynamin 1 splice variant xA, 746-864) (rat) (UniProt P21575). Kind of assay: affinity purification with mass spectrometry; GST-Dyn1-PRR pull-down from rat synaptosomal lysate; 40 kDa Coomassie band excised, LC-MS/MS and selective reaction monitoring (SRM) of the three Endophilin A isoforms; only the target purified.

These are yes or no findings as the source states them, for the method shown. In cells and extracts the contact can be indirect. Here binding means that the protein was enriched with, or labelled near, the bait; the list need not be complete.

Take “Endophilin A3 (endogenous, rat brain synaptosomes) (from UniProt O35180 1-347)”: the binding entry is given as “binds”.
